{"source": "ChEMBL document CHEMBL4316593", "about": "(Eur J Med Chem, 2019)", "type_in_all_cases": "cell-based", "settings_in_all_cases": "U-87MG ATCC", "key": {"[1]": {"experiment": "Inhibition of RTK/PI3K/AKT/mTOR signaling in human U87 cells assessed as down regulation of CDKN2AIP gene expression at cytotoxic IC50 measured after 48 hrs relative to control"}, "[2]": {"experiment": "Inhibition of RTK/PI3K/AKT/mTOR signaling in human U87 cells assessed as up regulation of ELP3 gene expression at cytotoxic IC50 measured after 48 hrs relative to control"}, "[3]": {"experiment": "Inhibition of RTK/PI3K/AKT/mTOR signaling in human U87 cells assessed as up regulation of GNB1 gene expression at cytotoxic IC50 measured after 48 hrs relative to control"}, "[4]": {"experiment": "Inhibition of RTK/PI3K/AKT/mTOR signaling in human U87 cells assessed as down regulation of BACH1 gene expression at cytotoxic IC50 measured after 48 hrs relative to control"}, "[5]": {"experiment": "Inhibition of RTK/PI3K/AKT/mTOR signaling in human U87 cells assessed as down regulation of IMPA1 gene expression at cytotoxic IC50 measured after 48 hrs relative to control"}, "[6]": {"experiment": "Inhibition of RTK/PI3K/AKT/mTOR signaling in human U87 cells assessed as down regulation of MAP3K6 gene expression at cytotoxic IC50 measured after 48 hrs relative to control"}, "[7]": {"experiment": "Inhibition of RTK/PI3K/AKT/mTOR signaling in human U87 cells assessed as down regulation of PIK3R4 gene expression at cytotoxic IC50 measured after 48 hrs relative to control"}, "[8]": {"experiment": "Inhibition of RTK/PI3K/AKT/mTOR signaling in human U87 cells assessed as up regulation of ankyrin repeat domain 11 gene expression at cytotoxic IC50 measured after 48 hrs relative to control"}, "[9]": {"experiment": "Inhibition of RTK/PI3K/AKT/mTOR signaling in human U87 cells assessed as down regulation of SLC27A4 gene expression at cytotoxic IC50 measured after 48 hrs relative to control"}, "[10]": {"experiment": "Inhibition of RTK/PI3K/AKT/mTOR signaling in human U87 cells assessed as down regulation of OTUD7B gene expression at cytotoxic IC50 measured after 48 hrs relative to control"}, "[11]": {"experiment": "Inhibition of RTK/PI3K/AKT/mTOR signaling in human U87 cells assessed as down regulation of RUSC2 gene expression at cytotoxic IC50 measured after 48 hrs relative to control"}, "[12]": {"experiment": "Inhibition of RTK/PI3K/AKT/mTOR signaling in human U87 cells assessed as up regulation of SLC45A1 gene expression at cytotoxic IC50 measured after 48 hrs relative to control"}, "[13]": {"experiment": "Inhibition of RTK/PI3K/AKT/mTOR signaling in human U87 cells assessed as up regulation of hexose-6-phosphate dehydrogenase/glucose 1-dehydrogenase gene expression at cytotoxic IC50 measured after 48 hrs relative to control"}, "[14]": {"experiment": "Inhibition of RTK/PI3K/AKT/mTOR signaling in human U87 cells assessed as up regulation of protein tyrosine kinase 7 (inactive) gene expression at cytotoxic IC50 measured after 48 hrs relative to control"}, "[15]": {"experiment": "Inhibition of RTK/PI3K/AKT/mTOR signaling in human U87 cells assessed as up regulation of CA9 gene expression at cytotoxic IC50 measured after 48 hrs relative to control"}, "[16]": {"experiment": "Inhibition of RTK/PI3K/AKT/mTOR signaling in human U87 cells assessed as up regulation of PRAG1 gene expression at cytotoxic IC50 measured after 48 hrs relative to control"}, "[17]": {"experiment": "Inhibition of RTK/PI3K/AKT/mTOR signaling in human U87 cells assessed as down regulation of TDRD7 gene expression at cytotoxic IC50 measured after 48 hrs relative to control"}, "[18]": {"experiment": "Inhibition of RTK/PI3K/AKT/mTOR signaling in human U87 cells assessed as down regulation of ZNF622 gene expression at cytotoxic IC50 measured after 48 hrs relative to control"}, "[19]": {"experiment": "Inhibition of RTK/PI3K/AKT/mTOR signaling in human U87 cells assessed as up regulation of SMU1 gene expression at cytotoxic IC50 measured after 48 hrs relative to control"}, "[20]": {"experiment": "Inhibition of RTK/PI3K/AKT/mTOR signaling in human U87 cells assessed as down regulation of CLSPN gene expression at cytotoxic IC50 measured after 48 hrs relative to control"}, "[21]": {"experiment": "Inhibition of RTK/PI3K/AKT/mTOR signaling in human U87 cells assessed as down regulation of RNF4 gene expression at cytotoxic IC50 measured after 48 hrs relative to control"}, "[22]": {"experiment": "Inhibition of RTK/PI3K/AKT/mTOR signaling in human U87 cells assessed as down regulation of NCOA4 gene expression at cytotoxic IC50 measured after 48 hrs relative to control"}, "[23]": {"experiment": "Inhibition of RTK/PI3K/AKT/mTOR signaling in human U87 cells assessed as down regulation of NECAP1 gene expression at cytotoxic IC50 measured after 48 hrs relative to control"}, "[24]": {"experiment": "Inhibition of RTK/PI3K/AKT/mTOR signaling in human U87 cells assessed as up regulation of hydroxymethylbilane synthase gene expression at cytotoxic IC50 measured after 48 hrs relative to control"}, "[25]": {"experiment": "Inhibition of RTK/PI3K/AKT/mTOR signaling in human U87 cells assessed as down regulation of SCYL2 gene expression at cytotoxic IC50 measured after 48 hrs relative to control"}, "[26]": {"experiment": "Inhibition of RTK/PI3K/AKT/mTOR signaling in human U87 cells assessed as down regulation of ECM1 gene expression at cytotoxic IC50 measured after 48 hrs relative to control"}, "[27]": {"experiment": "Inhibition of RTK/PI3K/AKT/mTOR signaling in human U87 cells assessed as up regulation of BCL2 like 2 gene expression at cytotoxic IC50 measured after 48 hrs relative to control"}, "[28]": {"experiment": "Inhibition of RTK/PI3K/AKT/mTOR signaling in human U87 cells assessed as down regulation of PSMC2 gene expression at cytotoxic IC50 measured after 48 hrs relative to control"}, "[29]": {"experiment": "Inhibition of RTK/PI3K/AKT/mTOR signaling in human U87 cells assessed as up regulation of CD109 gene expression at cytotoxic IC50 measured after 48 hrs relative to control"}, "[30]": {"experiment": "Inhibition of RTK/PI3K/AKT/mTOR signaling in human U87 cells assessed as down regulation of MPV17 gene expression at cytotoxic IC50 measured after 48 hrs relative to control"}, "[31]": {"experiment": "Inhibition of RTK/PI3K/AKT/mTOR signaling in human U87 cells assessed as down regulation of ANKRD52 gene expression at cytotoxic IC50 measured after 48 hrs relative to control"}, "[32]": {"experiment": "Inhibition of RTK/PI3K/AKT/mTOR signaling in human U87 cells assessed as up regulation of mannose receptor C type 2 gene expression at cytotoxic IC50 measured after 48 hrs relative to control"}}, "note": "Further values from the same series stand in other lists."}
{"smiles": "CC(=O)C(=NNc1ccccc1C#N)C(C)=O", "values": [{"measurement": "log2FC", "setting": "[1]", "value": -1.52}, {"measurement": "log2FC", "setting": "[2]", "value": 0.632}, {"measurement": "log2FC", "setting": "[3]", "value": 0.507}, {"measurement": "log2FC", "setting": "[4]", "value": -0.871}, {"measurement": "log2FC", "setting": "[5]", "value": -1.06}, {"measurement": "log2FC", "setting": "[6]", "value": -1.01}, {"measurement": "log2FC", "setting": "[7]", "value": -0.775}, {"measurement": "log2FC", "setting": "[8]", "value": 0.858}, {"measurement": "log2FC", "setting": "[9]", "value": -0.832}, {"measurement": "log2FC", "setting": "[10]", "value": -1.05}, {"measurement": "log2FC", "setting": "[11]", "value": -1.03}, {"measurement": "log2FC", "setting": "[12]", "value": 2.82}, {"measurement": "log2FC", "setting": "[13]", "value": 0.666}, {"measurement": "log2FC", "setting": "[14]", "value": 0.852}, {"measurement": "log2FC", "setting": "[15]", "value": 4.1}, {"measurement": "log2FC", "setting": "[16]", "value": 0.592}, {"measurement": "log2FC", "setting": "[17]", "value": -0.805}, {"measurement": "log2FC", "setting": "[18]", "value": -1.08}, {"measurement": "log2FC", "setting": "[19]", "value": 0.467}, {"measurement": "log2FC", "setting": "[20]", "value": -2.2}, {"measurement": "log2FC", "setting": "[21]", "value": -0.491}, {"measurement": "log2FC", "setting": "[22]", "value": -0.841}, {"measurement": "log2FC", "setting": "[23]", "value": -0.981}, {"measurement": "log2FC", "setting": "[24]", "value": 0.699}, {"measurement": "log2FC", "setting": "[25]", "value": -0.631}, {"measurement": "log2FC", "setting": "[26]", "value": -1.39}, {"measurement": "log2FC", "setting": "[27]", "value": 0.801}, {"measurement": "log2FC", "setting": "[28]", "value": -1.03}, {"measurement": "log2FC", "setting": "[29]", "value": 0.57}, {"measurement": "log2FC", "setting": "[30]", "value": -0.843}, {"measurement": "log2FC", "setting": "[31]", "value": -0.477}, {"measurement": "log2FC", "setting": "[32]", "value": 1.13}]}
